Measurements published in PubChem BioAssay AID493014 (National Center for Advancing Translational Sciences (NCATS), 2011).
The list shows a part of the results. These are further read-outs of the screen, such as a control signal, another cell line or another target. No call is given for them. Compounds called inactive in the main read-out are mostly missing here. Potencies come from curve fits of mixed quality, noted in brackets.

Test: qHTS Assay to Find Inhibitors of Chronic Active B-Cell Receptor Signaling
Details: ABC-DLBCL IkBa-CBG/CBR reporter, luminescence ratio (green luciferase fused to IkBa over red control in TMD8 lymphoma cells), 4 h
Outline: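 Doxycycline induced both beetle luciferases in TMD8 lymphoma cells; IKK-driven degradation limits the IkappaBalpha-fused green signal, while red luminescence normalises for cell number and nonspecific effects. Compounds tested up to 46 uM, 4 hrs.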

[1] = measured here: CBR red luminescence, cell number
[2] = measured here: IkBa-CBG green luminescence

SMILES | AC50 [1] | AC50 [2]
O=C(Nc1cccc(CNCCc2c[nH]c3ccccc23)c1)c1ccccc1Cl | 8.91 µM [falling, partial curve, poor fit] | –
Clc1ccc(CN2C3=NCCCN3c3ccccc32)cc1Cl | 35.5 µM [falling, single point] | –
CCn1ccnc1CN(C)Cc1cn(-c2ccc(C)cc2)nc1-c1cccc(C)c1 | 35.5 µM [falling, single point] | –
O=C(Cc1c(Sc2ccccc2)c2ccccc2n1Cc1ccccc1)NCCO | 29.1 µM [falling, single point] | –
N#Cc1ccsc1NC(=O)CSc1ncnc2ccccc12 | 18.4 µM [falling, partial curve, poor fit] | –
CN1CCN(C(=O)c2cnn3c(C(F)(F)F)cc(-c4cccs4)nc23)CC1 | 0.103 µM [rising, full curve] | –
CN1/C(=C\C=Nc2ccc3ccccc3c2)C(C)(C)c2ccccc21 | 10 µM [falling, partial curve] | –
Nc1ccc(NC(=O)Nc2ccc(N)cc2)cc1 | 11.2 µM [falling, partial curve, poor fit] | –
C=CCn1c(SCC(=O)N(C)C)nc2cc(C(=O)O)ccc2c1=O | 28.2 µM [falling, single point] | –
CC(C)N(Cc1cnn(C)c1)Cc1nc(Cc2ccccc2Cl)no1 | 0.398 µM [rising, full curve, poor fit] | –
O=C(COc1ccc2c(-c3ccccc3)cc(=O)oc2c1)NCC1CCC(C(=O)O)CC1 (configuration not stated) | 7.08 µM [rising, partial curve, poor fit] | –
CCOC(=O)CNS(=O)(=O)c1cc(-c2nn(C)c(=O)c3ccccc23)ccc1C | 31.6 µM [falling, single point] | –
Cc1ccc(S(=O)(=O)N2CCN(C(=O)C(C)Cn3nc(C)c(C)c3C)CC2)cc1C (configuration not stated) | 0.0891 µM [falling, full curve, poor fit] | –
COc1ccc(S(=O)(=O)Nc2cccc(-c3ccc4nncn4n3)c2)cc1 | – | 18.4 µM [falling, single point]
COc1ccc(C2C(C(=O)c3sc(C)nc3C)=C(O)C(=O)N2CCN(C)C)cc1OC (configuration not stated) | 5.8 µM [falling, single point] | –
Cc1ccc(C2C=C(c3ccccc3OC(F)F)Nc3ncnn32)cc1 (configuration not stated) | 4.61 µM [falling, partial curve, poor fit] | –
O=C(Nc1cccc(Cl)c1)NC1CC2CCC(C1)N2Cc1cccs1 (configuration not stated) | 35.5 µM [rising, single point] | –
Cc1nc(C)c(/C(O)=C/c2nc3ccccc3oc2=O)s1 | 4.61 µM [falling, full curve, poor fit] | –
Cc1ccc(S(=O)(=O)c2c(C)nn(C(C)(C)C)c2OC(=O)c2ccco2)cc1 | 25.1 µM [falling, single point] | –
O=C(CSc1nnnn1C1CCCC1)N1CCN(C(=O)c2ccco2)CC1 | 29.1 µM [rising, single point] | –
CCOC(=O)N1CCN(C(=O)COc2cccc3c2CCN(Cc2ccc(F)cc2)C3=O)CC1 | 13 µM [falling, partial curve, poor fit] | –

Complete entries from above. Order of values: AC50 [1] | AC50 [2]
O=C(Nc1cccc(CNCCc2c[nH]c3ccccc23)c1)c1ccccc1Cl reads 8.91 µM [falling, partial curve, poor fit] | –
CCOC(=O)N1CCN(C(=O)COc2cccc3c2CCN(Cc2ccc(F)cc2)C3=O)CC1 reads 13 µM [falling, partial curve, poor fit] | –

Remaining list, next part.

SMILES | AC50 [1] | AC50 [2]
CCCCOC(=O)/C=C\C(=O)NC(N)=O | 14.1 µM [falling, single point] | –
Cc1cc(C)n(-c2ncnc3sc4c(c23)CCCC4)n1 | 35.5 µM [rising, single point] | –
CC(C)Cn1c(N)c(C(=O)COC(=O)c2ccncc2)c(=O)n(C)c1=O | 3.55 µM [rising, partial curve, poor fit] | –
Cc1ccc(-n2c(CCc3ccccc3)nnc2SCC(=O)NCc2ccccc2)cc1C | 2.91 µM [rising, single point] | –
COc1ccc(-n2ncc3c(=O)n(CC(C)=O)cnc32)cc1 | 35.5 µM [rising, single point] | –
COc1ccc(-c2[nH]c(-c3ccc(F)cc3)nc2SCC(=O)NC2CCCC2)cc1 | 29.1 µM [falling, single point] | –
CN1c2ccccc2Sc2cc(N)ccc21 | – | 17.8 µM [falling, partial curve, poor fit]
O=C(Nc1ncc(Cc2ccccc2)s1)C1COc2ccccc2O1 (configuration not stated) | 0.562 µM [rising, full curve, poor fit] | –
CC(=O)Nc1nc(-c2ccccc2)nc(C)c1C(C)=O | 18.4 µM [rising, single point] | –
COc1ccc(-c2nc(C#N)c(NCC3CCCO3)o2)cc1 (configuration not stated) | 10.3 µM [rising, partial curve, poor fit] | –
CCN=c1sc(C(=O)NCCc2ccccc2)cc(=O)n1CC | 11.2 µM [falling, partial curve] | –
CCOc1ccccc1NC(=O)Nc1ccc(Cl)cc1 | 25.9 µM [falling, partial curve, poor fit] | –
O=C(COc1cccc(Cl)c1)N/N=C\c1cc2ccccc2nc1Cl | 0.092 µM [rising, full curve, poor fit] | –
Cc1cccc(-n2ncc3c(N4CCCC(C)C4)ncnc32)c1 (configuration not stated) | 35.5 µM [falling, single point] | –
O=C(NNC(=O)C1CC2CCC1C2)c1sc2ccccc2c1Cl (configuration not stated) | 18.4 µM [falling, single point] | –
NC(=O)COc1ccc(Nc2nnc(-c3ccc(O)cc3)c3ccccc23)cc1 | 14.1 µM [falling, single point] | –
Cn1c(=N)n(CC(=O)c2ccccc2)c2ccccc21 | 10 µM [falling, partial curve] | –
Cc1nn(CC(=O)Nc2ccc(F)cc2)c(=O)c2ccccc12 | 2.51 µM [falling, full curve] | –
Cn1nc(C(=O)Nc2nc3ccccc3[nH]2)ccc1=O | 15.8 µM [falling, partial curve] | –
COc1ccc(OC)c(C2=NOC(C(=O)NCc3ccco3)C2)c1 (configuration not stated) | 18.4 µM [falling, partial curve, poor fit] | –
CCCOc1nc2c(c(=O)n(C)c(=O)n2C)n1CCC | 3.16 µM [falling, single point] | –
